# According to PMC12627868:
# The chains behind the UniProt entries cited, without tags or fusion partners.
# UniProt Q9Z2N8: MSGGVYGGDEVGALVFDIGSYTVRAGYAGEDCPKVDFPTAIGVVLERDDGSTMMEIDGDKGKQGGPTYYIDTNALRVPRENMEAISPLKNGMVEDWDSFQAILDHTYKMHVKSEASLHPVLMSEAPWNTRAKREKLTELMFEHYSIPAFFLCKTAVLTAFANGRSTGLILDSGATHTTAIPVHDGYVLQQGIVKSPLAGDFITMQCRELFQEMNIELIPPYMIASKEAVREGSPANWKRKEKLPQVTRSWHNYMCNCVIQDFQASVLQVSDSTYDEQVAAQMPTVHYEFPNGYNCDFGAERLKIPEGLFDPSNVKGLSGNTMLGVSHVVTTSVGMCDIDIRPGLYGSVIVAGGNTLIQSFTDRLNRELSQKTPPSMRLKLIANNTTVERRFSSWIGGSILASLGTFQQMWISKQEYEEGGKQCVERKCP
# UniProt P48432: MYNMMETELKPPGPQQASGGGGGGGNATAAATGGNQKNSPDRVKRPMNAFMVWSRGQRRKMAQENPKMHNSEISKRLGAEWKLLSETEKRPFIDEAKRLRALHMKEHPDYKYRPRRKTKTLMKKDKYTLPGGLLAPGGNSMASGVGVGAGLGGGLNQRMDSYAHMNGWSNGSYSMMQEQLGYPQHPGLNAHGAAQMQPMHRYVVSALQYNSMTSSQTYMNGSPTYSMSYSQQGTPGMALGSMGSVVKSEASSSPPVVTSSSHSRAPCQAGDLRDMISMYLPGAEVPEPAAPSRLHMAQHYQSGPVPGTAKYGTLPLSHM
# Results are given in words; binding and its absence hold for the method and conditions named. In cells and extracts the contact can be indirect. Some binding calls cover weakened binding; strength is not graded here.
# Biological target: Actin-like protein 6A (Actl6a) (mouse (endogenous in primary neurons)) (UniProt Q9Z2N8)
# Assay: co-IP; cell lysates incubated overnight at 4 °C with antibodies to Actl6a (ab3882) and Sox2 (ab171380); immune complexes captured on Protein A/G beads and analysed by Western blot; primary neurons (Fig. 6C)
substance,measurement,value
Sox2 (from UniProt P48432 1-319),binding,binds
